Laboratory results published in PubChem BioAssay AID1347423 (Functional Genomics Laboratory (NCATS/FGL), 2020).
Hit rate of the full screen: of about 52,000 sequences, about 210 (0.4%) were called active.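 Rule for the calls: active = gene whose silencing raises cell survival under the drug, median off-target-corrected z-score across its silencing RNAs 2 or more; inactive = the rest.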 The list shows a part of the results.

assay: Resistance to Poly (ADP-Ribose) Polymerase inhibitor: Gene Identification via Genome-wide siRNA Screen; conditions: mouse BRCA2 R2336H ES cells, olaparib, CellTiter-Glo viability; hits give high values
How it was run: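 Genome-wide siRNA screen (3 siRNAs/gene, 20 nM) in mouse ES cells carrying hypomorphic BRCA2 R2336H; olaparib 500 nM added 48 h post-transfection, CellTiter-Glo viability 72 h later. Normalized to plate-median negative control; MAD z-scores, gene median, seed-adjusted.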

Row | Sequence | z-score
1 | GGGUCAAAUCUGCUUUUUCTT against Olfr272 | inactive: -1.16
2 | GGUUAUGGAGACAAAGGAUTT against Snf1lk | inactive: -1.66
3 | GGACACAGAUGCUUUCUUGTT against 1700030A21Rik | inactive: 1.35
4 | GCGGUCGUUGGCAAAAACUTT against Commd8 | inactive: 0.629
5 | GGUCUACAACCAAAUCUGCTT against Clecsf12 | inactive: 1.43
6 | GGACUGCAUCCAAAUUCCATT against Dnclc1 | inactive: 1.01
7 | CCAUGGAUGUAUGAGACUGTT against H2-M1 | inactive: -1.41
8 | GGUCUUAAACAGUUACAUGTT against Dmtf1 | inactive: -0.417
9 | GGUGAUUUCUUUGUGUGAUTT against Rpl22 | inactive: -1.95
10 | GGAAUGAAAAGGUAUGUGATT against D11Ertd498e | inactive: 1.64
11 | GGGAUAGCUGUCUUUCAUUTT against Extl3 | inactive: -2.09
12 | GGCAUUCUUCAAGAGGACGTT against Esrrg | inactive: -0.576
13 | CGUAGGAAUGAUCACAUUGTT against Olfr1136 | inactive: -2.32
14 | GCAGCACUGGAAUAUUUGGTT against 5730469M10Rik | inactive: -1.06
15 | GGCCUGAGAUCGAUCAUUCTT against Plcb4 | inactive: 0.216
16 | GCACAGAUAAAACUAACUATT against Kcna7 | inactive: 0.834
17 | GGAAAGAGAAGAAAACAAATT against Tmem25 | inactive: 0.471
18 | GGUGACUGUCCUGAACUAUTT against 2600010E01Rik | inactive: -0.0999
19 | GGGAGAACUAUCACCAUAATT against Wdr11 | inactive: -1.24
20 | GGGAAAAGAUUCAGCUAGATT against Ntn4 | inactive: -1.25
21 | GGGCACGGUAUUCCAUUUCTT against Tex292 | inactive: -0.32
22 | GCCAUAACCUAAGACUUUATT against Adcyap1r1 | inactive: -0.209
23 | CCAAGGGACACAUGCCAGATT against Olfr714 | inactive: 0.213
24 | GGAGUUGGAGAACAUUAUGTT against Dmrt2 | inactive: 0.83
25 | GCCGGAUCUAUUAAAGAAATT against Hdac2 | inactive: 0.649
26 | GUCAAAGCACCAUUUGAGUTT against V1rc32 | inactive: -0.166

Given field by field: entries from further up
GGAAUGAAAAGGUAUGUGATT against D11Ertd498e
  z-score: inactive: 1.64
GGGAUAGCUGUCUUUCAUUTT against Extl3
  z-score: inactive: -2.09
GGCAUUCUUCAAGAGGACGTT against Esrrg
  z-score: inactive: -0.576
CGUAGGAAUGAUCACAUUGTT against Olfr1136
  z-score: inactive: -2.32

Next part

Row | Sequence | z-score
27 | GGUGAUGGAAUACCAAAGGTT against ORF28 | inactive: -0.844
28 | GGCAUCUGAGCUGAGGAUUTT against Gem | inactive: 0.275
29 | GGACAAAUCUUCGUGCAAATT against Tle4 | inactive: 1.27
30 | GGAAGACCUUCUUAAACACTT against Gpr73l1 | inactive: 1.16
31 | GGUAUCCAGAUGAAAGAUGTT against Nalp10 | inactive: -1.18
32 | GGGUUCCUCCUUUCACAGATT against Ppia | inactive: -0.754
33 | CGUAGAGAUGGCGUAUGUCTT against E130307M08Rik | inactive: -1
34 | GCUUGCUGUUACGAUUCGCTT against Rab35 | inactive: 0.759
35 | UAACUCCAUGAUCAAUCCCTT against Gpr6 | inactive: 0.687
36 | GGCCAGAAUGUAUAAAGCUTT against 5730589L02Rik | inactive: 1.84
37 | GGCCGAUCCUCUUUUAAAUTT against C130034I18Rik | inactive: -0.22
38 | GGAAAGUCUCUGUUGUUCUTT against Alas1 | inactive: -1.09
39 | GGGAUUCUGAUCGUGUCCATT against Olfr1509 | inactive: 0.736
40 | GGAAAAACAGCUUAACACUTT against Svs7 | inactive: 0.732
41 | CCAGUAGUUACAAUGUUCUTT against 9530077C05Rik | inactive: 0.21
42 | CGAAAGGGAGAAAUUUGCUTT against 9930013L23Rik | inactive: 1.62
43 | GGUGAAAAGCAGCUAACAATT against 4921533L14Rik | inactive: -0.268
44 | GCCUGAUAGUGCAGAAACATT against Rabl2a | inactive: -2.62
45 | GCUGAAAAUAUACCAUUCATT against LOC239447 | inactive: -1.97
46 | CGUGAGAUCAUUGAUGUGGTT against Ankrd2 | inactive: 0.745
47 | GCCUUUCAUACAUUCAACATT against Olfr313 | inactive: -0.0644
48 | CCCAACACCCAAUAAAGUUTT against 2610034E13Rik | inactive: 0.0356
49 | GCACCUUUGAGUGCAACAUTT against 1700022N24Rik | inactive: -1.37
50 | AGGUGAUGGGUUAUGGCAGTT against Olfr1331 | inactive: 0.0783
51 | CCCUGUAAUCAGUAGAAGATT against AU041783 | inactive: -1.26
52 | GGUCUACAUUCGGAUAAAATT against 4933437K13Rik | inactive: 0.403

Looked up above:
z-score, GCCUGAUAGUGCAGAAACATT against Rabl2a is entered as inactive: -2.62
z-score, AGGUGAUGGGUUAUGGCAGTT against Olfr1331 is entered as inactive: 0.0783
z-score, GCUGAAAAUAUACCAUUCATT against LOC239447 is entered as inactive: -1.97
z-score, GCACCUUUGAGUGCAACAUTT against 1700022N24Rik is entered as inactive: -1.37

Carrying on:

Row | Sequence | z-score
53 | GGUAGAAGUCGUCUCUAACTT against Csf2 | inactive: 0.374
54 | GGGACACACGGUAUACAUCTT against Pfkl | inactive: 0.358
55 | CCCUGCGCCCUCUAAUAAATT against Pla2g1b | inactive: -1.44
56 | GGAUGUAAAGAGGAAUCUCTT against Abca16 | inactive: 0.00377
57 | GCCAGAAUGUGCUCAUUCGTT against Amhr2 | inactive: -2.04
58 | GGUGUGCUAUACAUUAAGATT against 4930422G04Rik | inactive: -0.604
59 | GCCUGUGGUAGGAUACUAUTT against Denr | inactive: -2.27
60 | GGAAUUUUCAAGGAACAAUTT against Il1rapl2 | inactive: 1.98
61 | GGCCAUCAGUAACCCAUUGTT against Olfr1132 | inactive: -0.731
62 | GGAGUACCCGGACUACAAGTT against Sox3 | inactive: -0.146
63 | GGAGUAGAUUUAAAAGGCATT against 4933440M02Rik | inactive: -0.818
64 | GGUCAAGAGAAUGUACAGATT against 2810404F18Rik | inactive: -0.292
65 | CCAGCAGCAAUUAGGACGUTT against Ogdh | inactive: -0.941
66 | CCAUGAGAACCUGAUGAAUTT against Pag | inactive: -0.41
67 | GGAAAUGUGCAAUUUAGUGTT against Abcb1a | inactive: -0.29
68 | GGACAGAACUGGAAAUUUUTT against D11Ertd603e | inactive: 0.454
69 | GGACUGGUCCAUGAGAAGGTT against 1200014P03Rik | inactive: -0.0863
70 | GGUCCUCCAGUAAGGACAATT against Hsd3b6 | inactive: -0.117
71 | CGCUAAUCUUCGAAAACCUTT against Abcc12 | inactive: 2.15
72 | GCCCUUUGAGACAUUGGAATT against Ciz1 | inactive: -0.161
73 | GGAGCAAAAGGGUCAGAGGTT against Socs3 | inactive: -0.964
74 | GCCUUCAUAGUUGGAAACCTT against Olfr172 | inactive: 0.619
75 | GGGUAUGAUUAAAAGGUAATT against Gdf8 | inactive: 0.086
76 | GGAUCCGUGCUGAAGUUUUTT against 0610037P05Rik | inactive: 0.441
77 | GGACCUCAACAUCCAGAGATT against Sema6b | inactive: 0.337
78 | GGCUAAUAUUUCCAUUGUATT against 1110018M03Rik | inactive: -0.584

Row | Sequence | z-score
79 | GGUUUUGUUAUGGUAAGUCTT against Vdr | inactive: -0.305
80 | CCAUAACCGUGGAAAUUUUTT against Galnt3 | inactive: 0.0839
81 | GUUCUAUGGUAGACAUUAUTT against Kb14 | inactive: -0.645
82 | GGCCAGAGACAGUUAUCUUTT against 1110032A04Rik | inactive: 2.12
83 | CGUGCACACUCAGAGAGUUTT against Wac | inactive: 0.0117
84 | GCCCAUGUCCGUUACUAUATT against Trim2 | inactive: 0.951
85 | UCUGCUAAGCUGACCCUUUTT against 2210020M01Rik | inactive: -1.06
86 | GCAGUUACGUUAGUUAAUATT against AA960558 | inactive: 0.265
87 | GGACUUCGGCACUGCUUAUTT against AI931714 | inactive: -1.92
88 | GGACAUUGUUGUCCAAACUTT against Spnb1 | inactive: 0.446
89 | GGAGAUUCUGUGCUACUCCTT against Xrcc3 | inactive: 0.311
90 | GGUGAAUGUUGGAGACACATT against 2900046G09Rik | inactive: 2
91 | GCACUGCAUUUGAAUAGCATT against Lrfn5 | inactive: 1.44
92 | GGGUAGCUGGCGAAUCAAATT against Ptpro | inactive: 1.43
93 | GGUAAUUUGUUUGUGGUGATT against Mtnr1b | inactive: -0.531
94 | GGGUUAACUUUUGUUCAAUTT against LOC622129 | inactive: 0.285
95 | GCACUGACAAAUCAUGGUATT against 4833439L19Rik | inactive: -1.09
96 | GGAUGAAAUCGCCAUAUGUTT against 6530403A03Rik | inactive: 1.24
97 | GGCAAAAACUACGUGCACCTT against Mapk7 | inactive: 0.177
98 | GCAGGGAUUUCUCGAAUGATT against Pgm1 | inactive: -0.0851
99 | CCAGCUCAUUCAAGAGCAATT against Tmc6 | inactive: 1.39
100 | GGAGAAAUUCAAAGAGAGUTT against Gas2 | inactive: -0.327
101 | CCUACUACUUCGUUAUCCGTT against Chrna2 | inactive: 0.222
102 | GCUACUUCAGUCAAGAACATT against C77668 | inactive: -0.812
103 | GCACAGGUAAUUUGUAAUGTT against Btbd3 | inactive: -0.416
